Test [1] addresses T1, CD146, endogenous in mouse adipose tissue (mouse (endogenous in WAT and BAT)) (UniProt Q8R2Y2).
T1 sequence: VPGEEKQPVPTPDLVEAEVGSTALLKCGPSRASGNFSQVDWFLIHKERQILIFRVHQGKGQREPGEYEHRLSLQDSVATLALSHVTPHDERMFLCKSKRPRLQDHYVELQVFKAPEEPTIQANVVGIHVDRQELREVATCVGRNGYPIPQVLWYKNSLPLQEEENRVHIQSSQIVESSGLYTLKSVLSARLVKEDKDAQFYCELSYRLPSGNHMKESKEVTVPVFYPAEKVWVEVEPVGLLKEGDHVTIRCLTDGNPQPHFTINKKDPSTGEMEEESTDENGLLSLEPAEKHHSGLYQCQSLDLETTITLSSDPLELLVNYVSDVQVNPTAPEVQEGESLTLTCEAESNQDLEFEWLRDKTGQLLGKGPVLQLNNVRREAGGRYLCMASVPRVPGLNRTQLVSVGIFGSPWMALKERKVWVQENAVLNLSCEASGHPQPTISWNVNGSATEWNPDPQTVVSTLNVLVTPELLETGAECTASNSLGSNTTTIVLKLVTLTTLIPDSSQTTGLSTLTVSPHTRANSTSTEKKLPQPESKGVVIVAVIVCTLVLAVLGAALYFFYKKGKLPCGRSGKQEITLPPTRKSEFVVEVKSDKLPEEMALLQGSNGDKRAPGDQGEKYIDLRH
Put plainly: co-IP; mouse BAT (Figure S12E); conditions for BAT not told.

Sequences of proteins named here, by UniProt entry; tags and fusion partners are left off.
UniProt P16045: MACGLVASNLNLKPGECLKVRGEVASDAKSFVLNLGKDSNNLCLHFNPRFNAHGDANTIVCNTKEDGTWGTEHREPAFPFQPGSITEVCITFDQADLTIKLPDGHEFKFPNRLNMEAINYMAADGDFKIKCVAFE

For test [2], the target named is T2, full‐length CD146 fused with Flag‐tag (UniProt P43121).
T2 sequence: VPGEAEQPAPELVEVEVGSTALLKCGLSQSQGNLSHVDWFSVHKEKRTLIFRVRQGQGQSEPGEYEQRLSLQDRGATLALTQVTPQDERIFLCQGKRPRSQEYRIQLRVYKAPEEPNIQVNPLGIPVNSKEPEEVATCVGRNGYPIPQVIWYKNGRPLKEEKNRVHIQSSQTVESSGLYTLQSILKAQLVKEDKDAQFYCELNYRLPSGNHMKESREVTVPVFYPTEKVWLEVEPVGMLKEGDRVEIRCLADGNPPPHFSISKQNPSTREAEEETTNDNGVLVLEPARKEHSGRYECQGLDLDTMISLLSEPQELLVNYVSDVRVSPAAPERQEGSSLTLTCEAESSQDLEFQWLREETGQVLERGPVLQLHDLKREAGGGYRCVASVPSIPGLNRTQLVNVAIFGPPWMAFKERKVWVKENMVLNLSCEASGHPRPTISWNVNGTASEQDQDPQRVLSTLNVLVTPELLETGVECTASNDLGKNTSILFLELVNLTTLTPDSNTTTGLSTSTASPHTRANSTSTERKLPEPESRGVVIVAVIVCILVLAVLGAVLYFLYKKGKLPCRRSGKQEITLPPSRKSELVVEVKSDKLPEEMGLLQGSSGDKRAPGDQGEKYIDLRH
The test is described as follows: co-IP; HEK293 cells cotransfected with ANGPTL2 and full‐length or truncated Flag‐CD146; RIPA lysate; anti‐FLAG M2 agarose beads overnight at 4 °C; western blot. For orientation: In western blotting, separated proteins are transferred to a membrane and probed.

Test [3] addresses T1, CD146, endogenous in mouse adipose tissue (mouse (endogenous in WAT and BAT)). Put plainly: co-IP; epididymal adipose tissue (WAT) of mice fed ND or HFD (lean and obese), RIPA lysate; specific antibodies and protein G PLUS‐agarose overnight at 4 °C; wash with 1 M NaCl, 1% NP‐40; western blot.

Results are given in words; binding and its absence hold for the method and conditions named. In cells and extracts the contact can be indirect. Some entries that bind do so weakly or less than the wild type. For part of these data: Sequences can lack the tags named with a protein.

Take “galectin‐1, endogenous in mouse BAT (from UniProt P16045 1-135) (ligand)”: in test [1], the binding entry is given as “binds”.

B1: ANGPTL2 coexpressed in 293 cells (ligand, UniProt Q9UKU9 23-493)
chain: QEDGFEGTEEGSPREFIYLNRYKRAGESQDKCTYTFIVPQQRVTGAICVNSKEPEVLLENRVHKQELELLNNELLKQKRQIETLQQLVEVDGGIVSEVKLLRKESRNMNSRVTQLYMQLLHEIIRKRDNALELSQLENRILNQTADMLQLASKYKDLEHKYQHLATLAHNQSEIIAQLEEHCQRVPSARPVPQPPPAAPPRVYQPPTYNRIINQISTNEIQSDQNLKVLPPPLPTMPTLTSLPSSTDKPSGPWRDCLQALEDGHDTSSIYLVKPENTNRLMQVWCDQRHDPGGWTVIQRRLDGSVNFFRNWETYKQGFGNIDGEYWLGLENIYWLTNQGNYKLLVTMEDWSGRKVFAEYASFRLEPESEYYKLRLGRYHGNAGDSFTWHNGKQFTTLDRDHDVYTGNCAHYQKGGWWYNACAHSNLNGVWYRGGHYRSRYQDGVYWAEFRGGSYSLKKVVMMIRPNPNTFH
Turning to B1, the binding entry in test [2] was “binds”.

B2: ANGPTL2, endogenous in mouse WAT (ligand, UniProt Q9R045 20-493)
chain: ATGPEADVEGTEDGSQREYIYLNRYKRAGESPDKCTYTFIVPQQRVTGAICVNSKEPEVHLENRVHKQELELLNNELLKQKRQIETLQQLVEVDGGIVSEVKLLRKESRNMNSRVTQLYMQLLHEIIRKRDNALELSQLENRILNQTADMLQLASKYKDLEHKFQHLAMLAHNQSEVIAQLEEHCQRVPAARPMPQPPPAAPPRVYQPPTYNRIINQISTNEIQSDQNLKVLPPSLPTMPALTSLPSSTDKPSGPWRDCLQALEDGHSTSSIYLVKPENTNRLMQVWCDQRHDPGGWTVIQRRLDGSVNFFRNWETYKQGFGNIDGEYWLGLENIYWLTNQGNYKLLVTMEDWSGRKVFAEYASFRLEPESEYYKLRLGRYHGNAGDSFTWHNGKQFTTLDRDHDVYTGNCAHYQKGGWWYNACAHSNLNGVWYRGGHYRSRYQDGVYWAEFRGGSYSLKKVVMMIRPNPNTFH
With B2, the binding result in test [3] was “binds”.
